Test [1] has as its target T1, TOL-1 ECR (residues D26-S996), purified (Caenorhabditis elegans) (UniProt Q9N5Z3).
T1 sequence (chain, N-linked glycans on eight asparagine residues (seen in the crystal structure)): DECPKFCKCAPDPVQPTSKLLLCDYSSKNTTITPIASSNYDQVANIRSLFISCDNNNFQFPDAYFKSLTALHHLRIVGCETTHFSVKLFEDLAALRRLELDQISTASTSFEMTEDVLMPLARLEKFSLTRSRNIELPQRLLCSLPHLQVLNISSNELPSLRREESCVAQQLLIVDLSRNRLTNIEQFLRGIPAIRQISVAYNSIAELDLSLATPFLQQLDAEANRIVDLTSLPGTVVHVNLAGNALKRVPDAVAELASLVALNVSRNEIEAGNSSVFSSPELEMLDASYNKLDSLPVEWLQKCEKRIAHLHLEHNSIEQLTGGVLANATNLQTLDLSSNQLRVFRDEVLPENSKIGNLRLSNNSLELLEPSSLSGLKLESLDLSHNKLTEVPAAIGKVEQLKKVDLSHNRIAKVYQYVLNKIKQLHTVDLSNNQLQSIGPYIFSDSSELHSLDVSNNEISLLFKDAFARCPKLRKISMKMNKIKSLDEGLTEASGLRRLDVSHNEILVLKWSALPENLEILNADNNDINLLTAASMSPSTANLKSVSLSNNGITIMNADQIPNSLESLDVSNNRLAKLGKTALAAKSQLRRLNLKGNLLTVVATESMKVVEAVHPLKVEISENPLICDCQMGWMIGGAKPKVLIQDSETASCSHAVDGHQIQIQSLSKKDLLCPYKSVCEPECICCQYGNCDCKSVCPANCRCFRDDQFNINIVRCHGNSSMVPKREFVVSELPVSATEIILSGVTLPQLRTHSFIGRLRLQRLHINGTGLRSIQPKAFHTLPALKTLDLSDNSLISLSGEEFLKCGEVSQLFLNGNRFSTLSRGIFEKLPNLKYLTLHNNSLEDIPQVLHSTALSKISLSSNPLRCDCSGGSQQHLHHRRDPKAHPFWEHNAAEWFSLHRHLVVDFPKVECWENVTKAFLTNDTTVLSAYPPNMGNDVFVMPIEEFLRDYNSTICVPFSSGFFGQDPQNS
The test is described as follows: SEC. (SEC sorts molecules by how far they enter the pores of the column.)

Test [2] has as its target T1, TOL-1 ECR (residues D26-S996), purified (Caenorhabditis elegans). The test is described as follows: cryo-EM structure.
For test [3] the target is unchanged. The test is described as follows: crystal structure.

These are yes or no findings as the source states them, for the method shown. Some results given as binding are weak or reduced against the parent protein; the word gives no strength.

B1: LAT-1 ECR (residues S28-T552), purified (domain or fragment, UniProt G5EDW2 28-552)
chain: SNKPTTDESGTISHTICDGEAAELSCPAGKVISIVLGNYGRFSVAVCLPDNDIVPSNINCQNHKTKSILEKKCNGDSMCYFTVDKKTFTEDPCPNTPKYLEVKYNCVVPATTTTTTTTTSTTTTDSSLIVDEEEEAQKDALNSDVIKPVKKKEDVFCSATNRRGVNWQNTKSGTTSSAPCPEGSSGKQLWACTEEGQWLTEFPNSAGCESNWISSRNSVLSGVISSEDVSGLPEFLRNLGSETRRPMVGGDLPKVLHLLEKTVNVIAEESWAYQHLPLSNKGAVEVMNYMLRNQEIWGSWDVTKRKEFASRFILAAEKAMVASAKGMMTSAESNVIVQPAITVEISHKIKMSSQPTDYILFPSAALWNGQNVDNVNIPRDAILKINKDETQVFFSSFDNLGAQMTPSDVTVAIAGTDQTEVRKRRVVSRIVGASLIENGKERRVENLTQPVRITFYHKESSVRHLSNPTCVWWNHHELKWKPSGCKLSYHNKTMTSCDCTHLTHFAVLMDVRGHDLNEIDQTLLT
As to B1, the binding result in test [1] and in test [2] was “binds” each time.

B2: LAT-1 Lec domain (residues T32-P136), purified (domain or fragment, UniProt G5EDW2 32-136)
chain: TTDESGTISHTICDGEAAELSCPAGKVISIVLGNYGRFSVAVCLPDNDIVPSNINCQNHKTKSILEKKCNGDSMCYFTVDKKTFTEDPCPNTPKYLEVKYNCVVP
Consider B2, for which the binding result in test [1] and in test [3] was “binds” each time.

The values are drawn from paper doi:10.1101/2023.05.04.539414.
